From US20040259798A1
These are yes or no findings as the source states them, for the method shown. Some results given as binding are weak or reduced against the parent protein; the word gives no strength. Sequences can lack the tags named with a protein.

Chains of the proteins cited; added tags and fusions are not shown. Lines headed by an entry give the natural chain unless they say otherwise; changes in a name come on top.
UniProt P20701: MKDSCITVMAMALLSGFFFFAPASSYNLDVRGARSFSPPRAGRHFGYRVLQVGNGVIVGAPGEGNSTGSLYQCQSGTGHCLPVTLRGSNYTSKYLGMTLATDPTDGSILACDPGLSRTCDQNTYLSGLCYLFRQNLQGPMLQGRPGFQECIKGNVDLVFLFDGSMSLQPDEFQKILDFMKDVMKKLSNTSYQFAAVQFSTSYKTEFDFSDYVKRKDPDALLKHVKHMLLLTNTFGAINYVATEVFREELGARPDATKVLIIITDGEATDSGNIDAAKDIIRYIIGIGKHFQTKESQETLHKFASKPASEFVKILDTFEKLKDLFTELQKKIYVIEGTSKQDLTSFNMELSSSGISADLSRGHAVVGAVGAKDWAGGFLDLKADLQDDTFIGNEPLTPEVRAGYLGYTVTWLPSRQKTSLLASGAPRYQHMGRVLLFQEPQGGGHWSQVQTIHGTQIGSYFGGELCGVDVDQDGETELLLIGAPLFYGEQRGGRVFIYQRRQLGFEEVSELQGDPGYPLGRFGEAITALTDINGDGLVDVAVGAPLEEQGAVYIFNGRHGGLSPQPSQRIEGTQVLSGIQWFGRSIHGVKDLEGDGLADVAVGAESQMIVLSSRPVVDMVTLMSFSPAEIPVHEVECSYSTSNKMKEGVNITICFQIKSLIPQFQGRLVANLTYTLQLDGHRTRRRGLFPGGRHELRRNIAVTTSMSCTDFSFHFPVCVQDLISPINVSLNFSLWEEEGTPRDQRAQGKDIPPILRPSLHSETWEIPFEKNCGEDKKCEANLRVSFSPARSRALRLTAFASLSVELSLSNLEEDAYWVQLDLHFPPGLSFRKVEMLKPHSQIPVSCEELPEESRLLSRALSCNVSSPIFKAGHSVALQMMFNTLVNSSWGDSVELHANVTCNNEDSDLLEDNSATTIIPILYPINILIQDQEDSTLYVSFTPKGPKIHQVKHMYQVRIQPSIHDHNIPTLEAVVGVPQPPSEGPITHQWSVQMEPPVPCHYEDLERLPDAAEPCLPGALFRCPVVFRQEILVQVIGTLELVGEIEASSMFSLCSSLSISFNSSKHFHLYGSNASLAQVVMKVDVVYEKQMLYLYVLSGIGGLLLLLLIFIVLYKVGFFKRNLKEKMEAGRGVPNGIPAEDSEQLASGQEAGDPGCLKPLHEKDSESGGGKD

Target: integrin captured with the TS2/4 antibody (UniProt P20701)
Test: GST protein (10 µg/ml) on integrin immunocaptured with TS2/4, Eu-labelled anti-GST detection

## CPCFLLGCC (peptide, not shown: a dimerising Fc or GST) [LLG-C4-GST fusion protein]
  binding: binds
